Test results reported in PMC7800377.
Results are given in words; binding and its absence hold for the method and conditions named. Binding calls can cover weak binding; strength is not graded here. Where a sequence is shown, tags or fusion partners need not be part of it.

Experiments:
[1] = target: SUN domain of human SUN1 (amino acid residues 616–812), tags removed (human); test: SEC-SAXS; samples at >10 mg/ml on Superdex 200 Increase 10/300 GL in 20 mM Tris pH 8.0, 150 mM KCl; scattering fitted with crystal structures and models; both purified
[2] = target: SUN domain of human SUN1 (amino acid residues 616–812), tags removed (human); test: crystal structure; SUN1-KASH4 complex at 25 mg/ml, sitting drops, 20°C; six copies of SUN1 and KASH4 per asymmetric unit; three zinc ions; 2.75 Å; both purified
[3] = target: SUN domain of human SUN1 (amino acid residues 616–812), tags removed (human); test: SEC-MALS; dilution series of SUN1-KASH complexes at 1.0, 0.1 and 0.01 mg/ml in 20 mM Tris pH 8.0, 150 mM KCl, 2 mM DTT; both purified
[4] = target: GCN4-SUN1 F671E (His6-GCN4 fusion of SUN1 616–812 F671E) (human); test: SEC; GCN4-SUN and MBP-KASH co-expressed, purified by amylose affinity and ion exchange, whole elution pooled and run on analytical gel filtration (Superdex 200 Increase 10/300 GL) in 20 mM Tris pH 8.0, 150 mM KCl, 2 mM DTT; fractions by SDS-PAGE; both purified
[5] = target: GCN4-SUN1 I673E (His6-GCN4 fusion of SUN1 616–812 I673E) (human); test: as above
[6] = target: SUN domain of human SUN1 (amino acid residues 616–812), tags removed (human); test: crystal structure; SUN1-KASH5 complex at 25 mg/ml, sitting drops, 20°C; one copy of SUN1 and KASH5 per asymmetric unit; 1.54 Å; both purified

Binder | binding [1] | binding [2] | binding [3] | binding [4] | binding [5] | binding [6]
ASGGPCCSHARIPRTPYLVLSYVNGLPPV (domain or fragment, UniProt Q8N205 376-404) [KASH domain of human Nesprin-4 (KASH4, amino acid residues 376–404), tags removed] | binds | binds | binds | – | – | –
GPSPPPTWPHLQLCYLQPPPV (domain or fragment, UniProt Q8N6L0 542-562) [KASH domain of human KASH5 (amino acid residues 542–562), tags removed] | binds | – | – | – | – | binds

The remaining lines, values ahead:

binding [1] | binding [2] | binding [3] | binding [4] | binding [5] | binding [6] | Binder
– | – | – | binds | binds | – | ASGGPCCSHARIPRTPYLVLSYVNGLPPV (domain or fragment, UniProt Q8N205 376-404) [MBP-KASH4 (His6-MBP fusion of the KASH domain of human Nesprin-4, residues 376–404)]
– | – | – | binds | binds | – | GPSPPPTWPHLQLCYLQPPPV (domain or fragment, UniProt Q8N6L0 542-562) [MBP-KASH5 (His6-MBP fusion of the KASH domain of human KASH5, residues 542–562)]
